Substitutions are numbered along the chain they refer to. No constants are given. Whether binding was seen depends on the method and setting. In cells and extracts the contact can be indirect. Some results given as binding are weak or reduced against the parent protein; the word gives no strength. Sequences can lack the tags named with a protein.
Experiments:
Experiment in all cases: pull-down; GST-Gal80 fusions immobilised on GSH sepharose, incubated with bacterial (E. coli) total protein extracts containing HA3-Cyc8 or HA3-Tup1; washing of intermediary stringency; elution with 10 mM free GSH; SDS-PAGE and blot with anti-HA-peroxidase conjugate; only the target purified
[1] = biological target: T1, GST-Gal80 aa 81-145 (repression-mediating domain, wild-type) (S. cerevisiae) (UniProt P04387)
T1 sequence: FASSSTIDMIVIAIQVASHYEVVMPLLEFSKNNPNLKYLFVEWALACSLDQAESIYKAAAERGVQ

[2] = biological target: T2, GST-Gal80 aa 81-145 L125A (S. cerevisiae) (UniProt P04387)
T2 sequence: T1 sequence with L45A

[3] = biological target: T3, GST-Gal80 aa 81-145 Y118A (S. cerevisiae) (UniProt P04387)
T3 sequence: T1 sequence with Y38A

[4] = biological target: T4, GST-Gal80 aa 146-220 (S. cerevisiae) (UniProt P04387)
T4 sequence: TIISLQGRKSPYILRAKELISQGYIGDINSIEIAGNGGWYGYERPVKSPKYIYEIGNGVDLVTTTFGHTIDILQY

[5] = biological target: T5, GST-Gal80 aa 81-145 V121A (S. cerevisiae) (UniProt P04387)
T5 sequence: T1 sequence with V41A

[6] = biological target: T6, GST-Gal80 aa 146-290 (S. cerevisiae) (UniProt P04387)
T6 sequence: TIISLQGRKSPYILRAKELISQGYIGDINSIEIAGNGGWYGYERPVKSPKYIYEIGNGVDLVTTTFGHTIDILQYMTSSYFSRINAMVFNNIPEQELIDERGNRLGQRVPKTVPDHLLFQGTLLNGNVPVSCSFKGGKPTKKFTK

[7] = biological target: T7, GST-Gal80 aa 81-145 K117A (S. cerevisiae) (UniProt P04387)
T7 sequence: T1 sequence with K37A

Measured: binding

B1: HA3-Cyc8 (aa 1-398, TPR-containing domain) (domain or fragment, UniProt P14922 1-398)
chain: MNPGGEQTIMEQPAQQQQQQQQQQQQQQQQAAVPQQPLDPLTQSTAETWLSIASLAETLGDGDRAAMAYDATLQFNPSSAKALTSLAHLYRSRDMFQRAAELYERALLVNPELSDVWATLGHCYLMLDDLQRAYNAYQQALYHLSNPNVPKLWHGIGILYDRYGSLDYAEEAFAKVLELDPHFEKANEIYFRLGIIYKHQGKWSQALECFRYILPQPPAPLQEWDIWFQLGSVLESMGEWQGAKEAYEHVLAQNQHHAKVLQQLGCLYGMSNVQFYDPQKALDYLLKSLEADPSDATTWYHLGRVHMIRTDYTAAYDAFQQAVNRDSRNPIFWCSIGVLYYQISQYRDALDAYTRAIRLNPYISEVWYDLGTLYETCNNQLSDALDAYKQAARLDVNN
binds: all assays above

From article PMC8801411
